Results deposited as PubChem BioAssay AID602196 (INSERM, 2012).

Purpose: 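Genes whose knock-down alters cisplatin killing of lung cancer cells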
Cells: human A549 lung cancer cells
Reagent: siRNA pair against human genes
Timing: 48 h transfection before cisplatin; time from cisplatin to read-out not stated
Conditions: cisplatin at a dose killing half of control-siRNA cells; exact dose and duration not given
Detection: 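Shift in cisplatin death relative to control siRNA, from -50 (all cells die) to +50 (no cells die); siRNAs harmful on their own scored 0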
Direction: two-siRNA summed score (-2 to +2): higher = both siRNAs protect from cisplatin killing; -2 means both sensitise; mean protection from cisplatin (shift in death) and protection from cisplatin (shift in death), siRNA C and protection from cisplatin (shift in death), siRNA D: higher = protection from cisplatin killing
Call rule: 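Each siRNA scores 0 if harmful alone by LDH or WST-1, otherwise +1 if it reduces and -1 if it increases cisplatin killing; a gene is active when both siRNAs agree (sum +2 or -2)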
Meaning of the calls: active = both siRNAs shift cisplatin killing the same way; inactive = no consistent shift, or siRNA harmful alone
In all, the deposit lists about 23,000 reagents; this is a random part of them. 455 of all reagents (2%) count as active. 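Active includes both protection and sensitisation; some change values fall well beyond the stated -50 to +50 range.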 Reagents against one gene are numbered here. Reagent sequences are not shown. Not stated in the record: the amount of reagent.

no.	gene	reagent	two-siRNA summed score (-2 to +2)	mean protection from cisplatin (shift in death) (%)	protection from cisplatin (shift in death), siRNA C (%)	protection from cisplatin (shift in death), siRNA D (%)	call
1	TMEM217	1	-1	-9.2	-13.3	-5.1	inactive
2	SUDS3	1	-1	-18.3	-1.8	-34.8	inactive
3	WAC	1	1	12.3	29.9	-5.3	inactive
4	CHD5	1	-1	-0.9	11.1	-13	inactive
5	KRTAP9-3	1	0	8.3	5.7	11	inactive
6	ZC3H15	1	0	3.2	8	-1.6	inactive
7	G3BP2	1	0	5	10.5	-0.6	inactive
8	LOC442073	1	0	13.6	4.5	22.7	inactive
9	LOC440778	1	2	15.2	11.8	18.7	active
10	MAK	1	0	3.8	5.3	2.4	inactive
11	LOC441593	1	1	22.1	22.5	21.6	inactive
12	FGF17	1	0	3.4	10.3	-3.5	inactive
13	AHCYL1	1	-1	-17.5	-35.9	0.9	inactive
14	TMEM175	1	0	-1.2	6.2	-8.7	inactive
15	ARHGAP33	1	0	-3.1	3.8	-10.1	inactive
16	LOC441513	1	0	-1.5	-2	-1	inactive
17	LRRC37A11P	1	0	8.8	6.1	11.5	inactive
18	UNC5B	1	1	10	24.3	-4.3	inactive
19	MGAT3	1	1	5.4	-4	14.7	inactive
20	ZNF790	1	0	6.1	6.6	5.6	inactive
21	FSCB	1	1	15.8	29.3	2.4	inactive
22	ATG4D	1	0	-6.7	-7.5	-5.8	inactive
23	BTN3A3	1	-1	-16.7	-9.7	-23.8	inactive
24	JDP2	1	1	6.2	-4.5	16.9	inactive
25	OR5V1	1	0	0.7	-0.6	1.9	inactive
26	INTS7	1	0	5	-6.2	16.2	inactive
27	CASK	1	0	2.4	-1.5	6.3	inactive
28	LOC442350	1	0	6.3	4.8	7.8	inactive
29	OR1S2	1	0	4.5	0.6	8.4	inactive
30	TRPC4AP	1	0	-17.2	-22.6	-11.7	inactive
31	ID4	1	0	3.3	0.7	5.9	inactive
32	MAGEA11	1	0	8.3	10.4	6.2	inactive
33	MAGEA11	2	0	8.7	-1.4	18.9	inactive
34	TXK	1	-2	-21.7	-13.4	-30	active
35	EDEM3	1	0	-12.7	-12.5	-12.9	inactive
36	IL2RG	1	0	16	15.5	16.4	inactive
37	ZNF287	1	1	5.3	20.4	-9.9	inactive
38	DUSP15	1	0	4	-1.5	9.5	inactive
39	RAD23B	1	0	9.6	-4.4	23.7	inactive

3 successive entries from above:
no.	gene	reagent	two-siRNA summed score (-2 to +2)	mean protection from cisplatin (shift in death) (%)	protection from cisplatin (shift in death), siRNA C (%)	protection from cisplatin (shift in death), siRNA D (%)	call
1	TMEM217	1	-1	-9.2	-13.3	-5.1	inactive
2	SUDS3	1	-1	-18.3	-1.8	-34.8	inactive
3	WAC	1	1	12.3	29.9	-5.3	inactive
